Here are results for three molecules from patent publication US20020143164A1, “Ras activator nucleic acid molecules, polypeptides and methods of use” (priority 1999, published 2002).

Amino acid sequences for entries named in this document (tags omitted). A change or cut given only in a name is not applied to a line headed by its entry. Chains listed by the source or under a name are the forms on record and can include a tag or linker.
Nedd4, endogenously expressed in Hek 293T cells (human (endogenous in HEK-293T cells)) (P46934, form named): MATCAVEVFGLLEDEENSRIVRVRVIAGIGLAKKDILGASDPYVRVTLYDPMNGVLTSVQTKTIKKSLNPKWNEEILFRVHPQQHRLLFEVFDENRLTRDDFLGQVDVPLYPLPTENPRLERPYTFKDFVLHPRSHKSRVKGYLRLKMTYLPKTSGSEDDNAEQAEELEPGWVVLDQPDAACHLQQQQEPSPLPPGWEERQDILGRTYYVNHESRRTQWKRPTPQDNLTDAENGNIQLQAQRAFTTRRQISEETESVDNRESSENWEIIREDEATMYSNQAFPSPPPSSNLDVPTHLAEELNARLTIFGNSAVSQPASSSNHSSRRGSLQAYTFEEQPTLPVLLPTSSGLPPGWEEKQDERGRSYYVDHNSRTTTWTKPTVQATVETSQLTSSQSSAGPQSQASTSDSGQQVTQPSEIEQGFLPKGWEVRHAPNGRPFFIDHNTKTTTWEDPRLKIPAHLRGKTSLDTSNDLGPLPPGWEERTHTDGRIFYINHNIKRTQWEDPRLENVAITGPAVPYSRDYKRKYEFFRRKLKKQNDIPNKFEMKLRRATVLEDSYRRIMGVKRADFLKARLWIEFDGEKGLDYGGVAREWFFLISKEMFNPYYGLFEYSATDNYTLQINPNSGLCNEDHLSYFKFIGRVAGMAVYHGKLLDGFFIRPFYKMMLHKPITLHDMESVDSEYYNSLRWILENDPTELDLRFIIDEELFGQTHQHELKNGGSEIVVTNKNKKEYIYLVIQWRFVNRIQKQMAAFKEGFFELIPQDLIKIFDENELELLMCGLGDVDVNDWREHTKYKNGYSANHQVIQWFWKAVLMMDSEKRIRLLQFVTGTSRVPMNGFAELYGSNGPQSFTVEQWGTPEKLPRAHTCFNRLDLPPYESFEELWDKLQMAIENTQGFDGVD

Test [1] deals with Nedd4, endogenously expressed in Hek 293T cells (human (endogenous in HEK-293T cells)) (UniProt P46934). The experiment in a line: GST pull-down from 293T lysates; Nedd4 immunoblot.
For test [2] the target is unchanged. The experiment in a line: co-immunoprecipitation from transfected Hek 293T cells.
Test [3] has the same target. Kind of test: co-immunoprecipitation with anti-Flag affinity gel from transfected Hek 293T cells; Nedd4 immunoblot. A general note: Immunoblotting shows a protein as a band on a membrane.
For test [4] the target is unchanged. Kind of test: summary of results (pull-down and co-immunoprecipitation).
The target of test [5] is T1, Flag-tagged full-length GRF4 (human) (UniProt Q9Y4G8).
T1 sequence: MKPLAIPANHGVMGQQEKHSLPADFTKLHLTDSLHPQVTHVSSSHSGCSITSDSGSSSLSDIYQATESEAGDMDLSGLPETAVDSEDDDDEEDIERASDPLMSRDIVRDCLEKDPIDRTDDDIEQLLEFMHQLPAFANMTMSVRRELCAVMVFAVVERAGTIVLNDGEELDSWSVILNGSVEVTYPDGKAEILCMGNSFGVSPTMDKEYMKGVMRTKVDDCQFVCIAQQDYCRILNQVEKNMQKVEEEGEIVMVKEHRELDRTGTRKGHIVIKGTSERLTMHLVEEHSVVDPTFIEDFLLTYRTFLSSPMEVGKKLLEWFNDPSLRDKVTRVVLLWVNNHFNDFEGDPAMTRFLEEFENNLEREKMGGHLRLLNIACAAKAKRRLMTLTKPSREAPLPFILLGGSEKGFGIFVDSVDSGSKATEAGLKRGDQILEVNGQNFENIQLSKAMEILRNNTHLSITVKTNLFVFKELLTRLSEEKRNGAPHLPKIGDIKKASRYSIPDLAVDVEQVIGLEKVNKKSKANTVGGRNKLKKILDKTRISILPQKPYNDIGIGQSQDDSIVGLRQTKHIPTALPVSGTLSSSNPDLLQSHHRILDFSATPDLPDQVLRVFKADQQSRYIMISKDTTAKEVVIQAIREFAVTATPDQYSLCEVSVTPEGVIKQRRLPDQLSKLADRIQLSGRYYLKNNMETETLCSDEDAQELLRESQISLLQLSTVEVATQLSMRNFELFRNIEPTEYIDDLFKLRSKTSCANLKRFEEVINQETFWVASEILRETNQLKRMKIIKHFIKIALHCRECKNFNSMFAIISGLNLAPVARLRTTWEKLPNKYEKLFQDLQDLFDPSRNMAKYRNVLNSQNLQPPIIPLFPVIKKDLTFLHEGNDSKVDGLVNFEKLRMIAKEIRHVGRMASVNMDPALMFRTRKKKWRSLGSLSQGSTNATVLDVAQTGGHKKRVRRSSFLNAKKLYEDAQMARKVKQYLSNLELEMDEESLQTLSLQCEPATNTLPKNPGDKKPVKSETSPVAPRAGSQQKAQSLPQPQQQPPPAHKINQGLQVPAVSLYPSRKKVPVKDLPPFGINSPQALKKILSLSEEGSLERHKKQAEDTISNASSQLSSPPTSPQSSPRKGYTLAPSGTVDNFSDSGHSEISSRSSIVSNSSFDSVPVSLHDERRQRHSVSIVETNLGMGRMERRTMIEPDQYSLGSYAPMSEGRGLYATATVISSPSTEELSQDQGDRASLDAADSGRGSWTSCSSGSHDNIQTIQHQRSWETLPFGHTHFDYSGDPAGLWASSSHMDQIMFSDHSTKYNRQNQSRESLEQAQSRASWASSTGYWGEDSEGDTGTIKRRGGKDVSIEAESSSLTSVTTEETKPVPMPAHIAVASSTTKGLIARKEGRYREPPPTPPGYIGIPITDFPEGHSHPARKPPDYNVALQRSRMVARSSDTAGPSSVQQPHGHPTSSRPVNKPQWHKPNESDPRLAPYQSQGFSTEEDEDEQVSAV
Kind of test: pull-down with GST-PDZ beads.

Test [6] deals with T1, Flag-tagged full-length GRF4 (human). Kind of test: summary of results (pull-down).
Test [7] shares this target. The experiment in a line: pull-down of Flag-tagged GRF4 from 293T lysates with GST-PDZ beads; anti-Flag immunoblot.

No constants are given. Whether binding was seen depends on the method and setting. In cells and extracts the contact can be indirect. Some entries that bind do so weakly or less than the wild type. Sequences can lack the tags named with a protein.

B1: GST-fusion protein of the C-terminal last 150 amino acids of GRF4, containing the two PY motifs (protein, not shown: a dimerising Fc or GST)
chain: GGKDVSIEAESSSLTSVTTEETKPVPMPAHIAVASSTTKGLIARKEGRYREPPPTPPGYIGIPITDFPEGHSHPARKPPDYNVALQRSRMVARSSDTAGPSSVQQPHGHPTSSRPVNKPQWHKPNESDPRLAPYQSQGFSTEEDEDEQVSAV
In the case of B1, in test [1], the binding result was “binds”.

B2: Flag-tagged full-length GRF4 (enzyme, not shown: small tags and cut ends)
chain: T1 sequence
As for B2, the binding entry in test [2], in test [3] and in test [4] was “binds” in each case.

B3: GST-fusion protein of GRF4-PDZ domain (GST-PDZ) (protein, not shown: a dimerising Fc or GST)
chain: MTLTKPSREAPLPFILLGGSEKGFGIFVDSVDSGSKATEAGLKRGDQILEVNGQNFENIQLSKAMEILRNNTHLSITVKTNLFVF
Turning to B3, the binding entry in test [5], in test [6] and in test [7] was “binds” throughout.
